The assay concerns the target human C5a receptor (C5aR) (Homo sapiens (Human), UniProt P21730). Description: Inhibition of C5a-C5aR binding (biotinylated human C5a, U937/C5aR cells, FACS).

Amino acid sequences for entries named in this document (tags omitted).
UniProt P21730, whole entry: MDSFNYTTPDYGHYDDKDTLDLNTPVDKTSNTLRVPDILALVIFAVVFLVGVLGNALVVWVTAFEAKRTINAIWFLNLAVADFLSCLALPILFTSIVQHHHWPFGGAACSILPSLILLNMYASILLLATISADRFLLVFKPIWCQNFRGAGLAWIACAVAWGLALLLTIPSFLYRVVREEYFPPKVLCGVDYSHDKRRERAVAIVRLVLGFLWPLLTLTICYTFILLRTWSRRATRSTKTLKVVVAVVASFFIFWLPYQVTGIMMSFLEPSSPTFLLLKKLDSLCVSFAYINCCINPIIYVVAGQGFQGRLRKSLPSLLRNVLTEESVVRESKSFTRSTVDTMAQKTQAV

Certain results were filed several times, with different values. This list holds those alone. There may be further records. Values given together differ for a reason that is not stated; some may be repeats, others may stem from another dose, organism or construct than stated.

Usually IC50 stands for the point on the concentration scale where inhibition reaches its midpoint. Read a low IC50 as greater potency. For the compound `Cc1ccc(NC(=O)[C@H]2C[C@H]3CN(C)C[C@H]3N(C(=O)c3c(C)cccc3F)[C@H]2c2ccc(N(C)C3CCCC3)cc2)cc1C(F)(F)F` (relative stereo), the IC50 is 50 nM to 500 nM and 500 nM to 2 µM.

The record behind these values is patent publication US20240043439A1, “COMPOUNDS AS C5AR INHIBITORS” (Kira Pharmaceuticals (Suzhou) Ltd., priority 2020, published 2024).
